# Some of the results follow.
# The chains behind the UniProt entries cited, without tags or fusion partners. Where a name states a change or a piece, a line headed by the entry shows the natural chain unless it says otherwise.
# UniProt Q9UJS0: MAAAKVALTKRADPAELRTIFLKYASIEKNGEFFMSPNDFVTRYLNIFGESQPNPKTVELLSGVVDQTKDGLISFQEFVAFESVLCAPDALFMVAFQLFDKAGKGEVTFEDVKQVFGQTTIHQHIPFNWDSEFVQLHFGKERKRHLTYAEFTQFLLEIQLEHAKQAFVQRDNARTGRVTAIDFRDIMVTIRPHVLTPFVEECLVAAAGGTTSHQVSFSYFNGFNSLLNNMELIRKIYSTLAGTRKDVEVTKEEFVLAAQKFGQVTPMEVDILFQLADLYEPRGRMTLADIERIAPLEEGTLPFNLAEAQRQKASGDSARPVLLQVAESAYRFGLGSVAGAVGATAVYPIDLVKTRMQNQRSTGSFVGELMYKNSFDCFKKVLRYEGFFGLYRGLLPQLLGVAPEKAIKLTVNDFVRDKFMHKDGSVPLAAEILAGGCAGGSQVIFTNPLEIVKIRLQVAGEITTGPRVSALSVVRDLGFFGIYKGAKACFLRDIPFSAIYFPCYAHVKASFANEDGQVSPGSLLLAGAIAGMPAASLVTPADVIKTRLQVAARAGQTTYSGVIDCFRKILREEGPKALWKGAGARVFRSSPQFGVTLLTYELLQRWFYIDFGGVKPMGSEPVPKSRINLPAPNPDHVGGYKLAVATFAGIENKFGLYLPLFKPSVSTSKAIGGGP
# UniProt Q08357: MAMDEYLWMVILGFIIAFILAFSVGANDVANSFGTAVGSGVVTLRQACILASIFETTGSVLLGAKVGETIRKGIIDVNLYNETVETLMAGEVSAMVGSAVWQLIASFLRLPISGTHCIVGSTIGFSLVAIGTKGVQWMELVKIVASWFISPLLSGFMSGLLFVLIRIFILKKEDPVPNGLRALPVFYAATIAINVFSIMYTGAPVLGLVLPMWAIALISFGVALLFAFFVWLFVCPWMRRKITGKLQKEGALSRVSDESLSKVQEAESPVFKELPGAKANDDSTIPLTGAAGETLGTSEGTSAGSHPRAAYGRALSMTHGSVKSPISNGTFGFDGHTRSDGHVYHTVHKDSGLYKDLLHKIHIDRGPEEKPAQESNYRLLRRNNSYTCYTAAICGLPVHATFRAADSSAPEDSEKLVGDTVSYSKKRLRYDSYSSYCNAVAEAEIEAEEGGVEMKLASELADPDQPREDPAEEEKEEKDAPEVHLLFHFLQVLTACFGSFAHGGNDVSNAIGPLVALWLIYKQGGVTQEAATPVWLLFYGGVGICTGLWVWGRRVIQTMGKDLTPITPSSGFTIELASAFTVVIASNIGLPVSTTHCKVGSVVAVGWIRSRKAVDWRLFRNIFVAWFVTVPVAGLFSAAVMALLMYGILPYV
# UniProt Q9Y289: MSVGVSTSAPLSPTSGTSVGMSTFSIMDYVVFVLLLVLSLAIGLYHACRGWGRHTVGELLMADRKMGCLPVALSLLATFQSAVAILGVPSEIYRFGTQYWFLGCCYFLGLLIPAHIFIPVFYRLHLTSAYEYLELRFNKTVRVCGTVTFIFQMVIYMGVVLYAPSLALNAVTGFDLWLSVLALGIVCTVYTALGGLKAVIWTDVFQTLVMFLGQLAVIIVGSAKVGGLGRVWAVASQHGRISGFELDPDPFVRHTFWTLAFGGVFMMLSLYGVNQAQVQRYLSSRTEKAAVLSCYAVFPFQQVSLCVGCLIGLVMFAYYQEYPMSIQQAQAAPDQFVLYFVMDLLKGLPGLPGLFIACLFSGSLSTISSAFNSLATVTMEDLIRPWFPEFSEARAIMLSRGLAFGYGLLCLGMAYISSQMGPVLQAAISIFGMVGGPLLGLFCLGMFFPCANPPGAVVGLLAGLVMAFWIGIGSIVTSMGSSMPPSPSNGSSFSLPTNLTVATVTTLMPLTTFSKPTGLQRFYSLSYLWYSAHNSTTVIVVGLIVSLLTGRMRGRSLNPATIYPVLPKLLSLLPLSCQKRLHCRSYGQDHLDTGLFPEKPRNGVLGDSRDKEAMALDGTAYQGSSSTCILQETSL
# UniProt P31641: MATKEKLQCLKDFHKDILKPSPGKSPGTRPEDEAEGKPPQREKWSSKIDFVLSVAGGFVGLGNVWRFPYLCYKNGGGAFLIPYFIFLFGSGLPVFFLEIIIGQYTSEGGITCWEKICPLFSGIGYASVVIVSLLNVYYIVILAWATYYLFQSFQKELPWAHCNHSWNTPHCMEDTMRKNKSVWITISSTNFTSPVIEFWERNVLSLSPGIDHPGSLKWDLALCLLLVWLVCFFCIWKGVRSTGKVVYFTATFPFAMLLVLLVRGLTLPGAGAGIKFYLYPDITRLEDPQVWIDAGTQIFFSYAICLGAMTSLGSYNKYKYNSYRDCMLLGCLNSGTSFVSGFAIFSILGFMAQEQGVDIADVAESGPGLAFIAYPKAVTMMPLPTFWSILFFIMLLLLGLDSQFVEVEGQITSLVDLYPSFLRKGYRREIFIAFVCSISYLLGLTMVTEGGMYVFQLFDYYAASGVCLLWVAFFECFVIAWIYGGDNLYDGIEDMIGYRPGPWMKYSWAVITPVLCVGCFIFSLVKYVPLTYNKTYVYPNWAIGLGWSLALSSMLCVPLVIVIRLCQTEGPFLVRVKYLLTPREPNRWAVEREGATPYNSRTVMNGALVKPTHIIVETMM
# UniProt Q8TAQ2, whole entry: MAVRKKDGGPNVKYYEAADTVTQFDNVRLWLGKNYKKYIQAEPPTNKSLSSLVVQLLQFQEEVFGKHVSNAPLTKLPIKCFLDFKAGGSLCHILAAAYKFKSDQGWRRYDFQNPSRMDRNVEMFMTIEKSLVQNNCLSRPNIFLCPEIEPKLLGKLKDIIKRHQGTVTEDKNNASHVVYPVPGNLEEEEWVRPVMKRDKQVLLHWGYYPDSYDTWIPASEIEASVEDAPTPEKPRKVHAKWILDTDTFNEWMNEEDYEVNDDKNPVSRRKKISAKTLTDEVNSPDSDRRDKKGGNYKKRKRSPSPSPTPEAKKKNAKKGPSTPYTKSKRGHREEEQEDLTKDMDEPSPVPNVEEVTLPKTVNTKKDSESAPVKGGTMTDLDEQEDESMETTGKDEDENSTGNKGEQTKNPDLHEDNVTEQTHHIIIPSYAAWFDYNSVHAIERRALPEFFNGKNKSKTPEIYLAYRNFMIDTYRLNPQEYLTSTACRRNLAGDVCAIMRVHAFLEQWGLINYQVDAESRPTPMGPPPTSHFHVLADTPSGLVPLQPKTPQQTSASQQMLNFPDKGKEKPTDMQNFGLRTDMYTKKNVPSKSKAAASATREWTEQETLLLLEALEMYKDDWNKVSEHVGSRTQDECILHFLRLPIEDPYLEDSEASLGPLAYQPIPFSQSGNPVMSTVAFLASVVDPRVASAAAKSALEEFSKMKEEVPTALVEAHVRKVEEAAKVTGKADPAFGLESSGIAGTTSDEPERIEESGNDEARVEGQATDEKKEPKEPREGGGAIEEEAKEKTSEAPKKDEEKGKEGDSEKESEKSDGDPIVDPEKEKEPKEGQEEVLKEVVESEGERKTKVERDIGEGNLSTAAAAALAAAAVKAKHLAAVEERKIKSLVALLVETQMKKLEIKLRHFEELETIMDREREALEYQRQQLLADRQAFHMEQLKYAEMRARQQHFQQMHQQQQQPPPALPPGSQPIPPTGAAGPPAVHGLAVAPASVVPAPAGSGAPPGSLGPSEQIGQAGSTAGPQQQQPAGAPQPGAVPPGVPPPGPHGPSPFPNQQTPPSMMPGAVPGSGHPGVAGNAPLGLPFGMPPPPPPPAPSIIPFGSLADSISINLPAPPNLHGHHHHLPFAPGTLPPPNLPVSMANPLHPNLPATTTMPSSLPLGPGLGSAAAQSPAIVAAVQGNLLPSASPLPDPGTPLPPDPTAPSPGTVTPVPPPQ
# UniProt P62306, whole entry, looked up: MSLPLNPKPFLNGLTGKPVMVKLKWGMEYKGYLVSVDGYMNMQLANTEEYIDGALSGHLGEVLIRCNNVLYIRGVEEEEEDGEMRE
# UniProt Q8NBJ9: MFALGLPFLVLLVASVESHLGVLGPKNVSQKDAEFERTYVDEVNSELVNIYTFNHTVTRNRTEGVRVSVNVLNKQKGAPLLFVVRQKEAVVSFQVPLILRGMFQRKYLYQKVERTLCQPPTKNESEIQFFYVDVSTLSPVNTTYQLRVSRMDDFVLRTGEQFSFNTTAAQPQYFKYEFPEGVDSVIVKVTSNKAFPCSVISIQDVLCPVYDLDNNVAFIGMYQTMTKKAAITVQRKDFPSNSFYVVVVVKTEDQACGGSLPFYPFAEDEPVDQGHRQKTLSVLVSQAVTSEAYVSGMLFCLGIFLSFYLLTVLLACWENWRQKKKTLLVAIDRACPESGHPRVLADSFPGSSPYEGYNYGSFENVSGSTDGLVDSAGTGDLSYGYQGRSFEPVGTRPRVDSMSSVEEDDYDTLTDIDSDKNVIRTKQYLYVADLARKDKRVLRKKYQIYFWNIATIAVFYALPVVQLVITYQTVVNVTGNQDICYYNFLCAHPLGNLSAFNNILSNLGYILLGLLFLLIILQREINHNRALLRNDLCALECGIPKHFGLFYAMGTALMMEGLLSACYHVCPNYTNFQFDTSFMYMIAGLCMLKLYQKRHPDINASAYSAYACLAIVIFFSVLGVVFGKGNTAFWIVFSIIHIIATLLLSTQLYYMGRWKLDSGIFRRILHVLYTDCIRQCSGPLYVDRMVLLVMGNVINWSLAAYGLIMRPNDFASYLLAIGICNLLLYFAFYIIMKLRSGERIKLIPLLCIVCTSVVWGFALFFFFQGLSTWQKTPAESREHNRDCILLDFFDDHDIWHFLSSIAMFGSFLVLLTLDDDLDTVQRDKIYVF
# UniProt P55011: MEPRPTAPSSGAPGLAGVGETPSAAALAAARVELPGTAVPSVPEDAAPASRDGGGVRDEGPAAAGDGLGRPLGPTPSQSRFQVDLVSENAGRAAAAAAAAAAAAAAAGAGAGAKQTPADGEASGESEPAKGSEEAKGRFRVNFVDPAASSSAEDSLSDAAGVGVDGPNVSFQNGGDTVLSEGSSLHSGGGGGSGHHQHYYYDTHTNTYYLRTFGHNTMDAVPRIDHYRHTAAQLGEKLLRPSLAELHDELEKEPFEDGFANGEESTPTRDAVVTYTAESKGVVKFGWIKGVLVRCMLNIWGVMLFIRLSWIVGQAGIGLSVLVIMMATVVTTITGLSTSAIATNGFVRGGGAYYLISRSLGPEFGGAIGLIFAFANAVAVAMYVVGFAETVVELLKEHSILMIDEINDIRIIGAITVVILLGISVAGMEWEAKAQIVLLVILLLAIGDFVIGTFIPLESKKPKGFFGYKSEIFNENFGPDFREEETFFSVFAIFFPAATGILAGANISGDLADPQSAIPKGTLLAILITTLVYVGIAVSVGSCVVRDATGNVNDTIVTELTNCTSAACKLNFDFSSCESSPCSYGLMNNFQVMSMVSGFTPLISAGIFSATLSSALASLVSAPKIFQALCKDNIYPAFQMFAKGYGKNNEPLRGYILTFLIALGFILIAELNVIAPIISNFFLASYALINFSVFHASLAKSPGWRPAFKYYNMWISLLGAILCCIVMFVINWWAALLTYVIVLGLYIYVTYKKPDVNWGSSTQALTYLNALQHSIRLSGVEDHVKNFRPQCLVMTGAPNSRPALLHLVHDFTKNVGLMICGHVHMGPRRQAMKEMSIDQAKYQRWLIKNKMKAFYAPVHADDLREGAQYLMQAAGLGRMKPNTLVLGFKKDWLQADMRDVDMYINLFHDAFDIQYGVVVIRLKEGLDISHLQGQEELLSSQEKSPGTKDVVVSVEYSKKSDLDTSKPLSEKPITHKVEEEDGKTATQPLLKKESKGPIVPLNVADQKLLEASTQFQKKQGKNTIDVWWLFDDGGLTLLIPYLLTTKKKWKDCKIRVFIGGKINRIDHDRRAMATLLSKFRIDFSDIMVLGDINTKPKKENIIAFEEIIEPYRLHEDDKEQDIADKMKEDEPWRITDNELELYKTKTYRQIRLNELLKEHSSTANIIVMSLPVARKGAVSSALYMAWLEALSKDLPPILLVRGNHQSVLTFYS
# UniProt Q6PCB7: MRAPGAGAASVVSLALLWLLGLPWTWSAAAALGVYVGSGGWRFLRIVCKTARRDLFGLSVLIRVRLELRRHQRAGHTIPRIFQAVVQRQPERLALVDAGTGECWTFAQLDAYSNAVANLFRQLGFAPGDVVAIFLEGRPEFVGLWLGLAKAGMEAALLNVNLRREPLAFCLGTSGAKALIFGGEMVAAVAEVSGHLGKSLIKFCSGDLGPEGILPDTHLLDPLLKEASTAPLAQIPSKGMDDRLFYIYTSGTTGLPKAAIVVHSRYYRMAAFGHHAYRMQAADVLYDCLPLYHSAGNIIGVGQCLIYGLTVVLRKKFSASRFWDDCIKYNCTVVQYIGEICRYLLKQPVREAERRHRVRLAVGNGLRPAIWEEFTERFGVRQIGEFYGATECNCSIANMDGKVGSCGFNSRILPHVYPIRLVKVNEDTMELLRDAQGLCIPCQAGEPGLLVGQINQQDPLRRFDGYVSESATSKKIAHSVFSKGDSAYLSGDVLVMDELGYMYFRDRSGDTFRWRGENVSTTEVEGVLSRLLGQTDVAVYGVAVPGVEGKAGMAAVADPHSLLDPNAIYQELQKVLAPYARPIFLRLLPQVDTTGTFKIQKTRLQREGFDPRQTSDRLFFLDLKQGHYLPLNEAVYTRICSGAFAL
# Compound: COc1ccc(Cn2ccc3cc(C)c(C(=O)NO)cc32)cc1
# Assay: dose-dependent thermal stabilisation call (2D-TPP, DLPTP, 10% FDR) (binary (1 = stabilised)); higher = stabilised by the compound
# Details: system: HL-60 intact cells; concentration range 0.04-10 µM
# Protocol: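 2D thermal proteome profiling in intact HL-60 cells treated with BRD-3811 (0, 0.04, 0.29, 2, 10 uM) for 90 min at 37 C, then heated 3 min at one of 12 temperatures (42-63.9 C). Soluble protein was quantified by TMT10 MS. The value is the DLPTP call of the paper: dose-dependent thermal stabilisation over all temperatures at 10% FDR (F-test of a dose-response against a flat model); one experiment, one call per tested protein.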
row,Target,dose-dependent thermal stabilisation call
1,SLC38A2 (UniProt Q96QD8),inactive: 0
2,SMNDC1 (UniProt O75940),inactive: 0
3,SLC16A7 (UniProt O60669),inactive: 0
4,SLC25A46 (UniProt Q96AG3),inactive: 0
5,SLC25A13 (UniProt Q9UJS0),inactive: 0
6,SLC20A2 (UniProt Q08357),inactive: 0
7,SLC5A6 (UniProt Q9Y289),inactive: 0
8,SLAIN2 (UniProt Q9P270),inactive: 0
9,SLC6A6 (UniProt P31641),inactive: 0
10,SMARCC2 (UniProt Q8TAQ2),inactive: 0
11,SERPINE2 (UniProt P07093),inactive: 0
12,SNRPF (UniProt P62306),inactive: 0
13,SLFN13 (UniProt Q68D06),inactive: 0
14,SLC39A10 (UniProt Q9ULF5),inactive: 0
15,SLC25A15 (UniProt Q9Y619),inactive: 0
16,SIDT2 (UniProt Q8NBJ9),inactive: 0
17,SMARCA5 (UniProt O60264),inactive: 0
18,SHC1 (UniProt P29353),inactive: 0
19,SF1 (UniProt Q15637),inactive: 0
20,SLC9A6 (UniProt Q92581),inactive: 0
21,SLC25A6 (UniProt P12236),inactive: 0
22,SLC12A2 (UniProt P55011),inactive: 0
23,SFRS15 (UniProt O95104),inactive: 0
24,SLC16A3 (UniProt O15427),inactive: 0
25,SMG1 (UniProt Q96Q15),inactive: 0
26,SLC27A1 (UniProt Q6PCB7),inactive: 0

# Retrieved one by one from above, 2 records:
row,Target,dose-dependent thermal stabilisation call
25,SMG1 (UniProt Q96Q15),inactive: 0
1,SLC38A2 (UniProt Q96QD8),inactive: 0

# — the supplement of paper PMC7666118
